Source: the supplement of paper PMC5949888
Most values lie at the floor of the assay. Slopes are relative: functional sequences can read slightly below zero.

Each substance was assayed on Saccharomyces cerevisiae PS128 hsf1 delta, HSF1(1-493) fusion (assay: growth estimate (transactivation domain function in HSF1 fusion, heat-shock survival) (a.u. (slope of normalised read count over time)); higher = stronger growth at 37°C, i.e. more transactivation activity). Details: library: random library.
In the case of CPGALSDNYKPVSWYRSTLL, the growth estimate is reported as < -0.25.
In the case of NEVHGVVSTDHVCHYLVGWV, the growth estimate is reported as < -0.25.
For TTLLANKNRCPHSKTSDSGC, the growth estimate was < -0.25.
RRVCTVWHQCWARLAWFPIT was tested, and the growth estimate was < -0.25.
In the case of PLWGLYNIRPSMLRSVRAD, the growth estimate is reported as < -0.251.
With ESTEKSRERVGGDVRSRVAR the growth estimate was < -0.25.
SYGYTSD was tested, and the growth estimate was < -0.25.
EETHLRASGDLPAVTVIWLY was tested, and the growth estimate was < -0.25.
With PECCPLARYGYGLRWL the growth estimate was < -0.25.
TVLTIVIA was tested, and the growth estimate was < -0.25.
With SSVFPAG the growth estimate was < -0.25.
In the case of TARRIRNHGGGRRLGISVPT, the growth estimate is reported as < -0.25.
With GHDYLVFQYSFDHL the growth estimate was -0.11.
With IGLEIAPWLMQGGVCPTGKH the growth estimate was < -0.25.
With NHPFRVLQLCSSTLLPVGRC the growth estimate was < -0.25.
With RQRFFSACVHVKRYHKHLRA the growth estimate was < -0.25.
RCIYMLQDYCTATSLLQIRQ was tested, and the growth estimate was < -0.25.
For HLPPRNQLMSEKSECSPWPS, the growth estimate was < -0.25.
For KNGTYEIGES, the growth estimate was < -0.25.
IGGYAHLFREDSAGASRRQK was tested, and the growth estimate was < -0.25.
DASVT was tested, and the growth estimate was < -0.25.
With IVGLLIVYHVPIARVKHTRD the growth estimate was < -0.25.
For NLRLETGRPEQVGSLASTRA, the growth estimate was < -0.25.
With CKTATACVSEWSTTGFNPGM the growth estimate was < -0.25.
For ASCECPIIA, the growth estimate was < -0.25.
For TSLAGNRWHGGGLMRTVLCL, the growth estimate was < -0.25.
With IMTAGGVKILGNG the growth estimate was < -0.25.
ASSELIMVG was tested, and the growth estimate was < -0.25.
In the case of GILSIALRSPPGPRCLKGCR, the growth estimate is reported as < -0.25.
With DQITSFTPRMKHTNSWTSCE the growth estimate was < -0.25.
In the case of QKCVVCVRLGDRNESDHSDA, the growth estimate is reported as < -0.25.
With EKVVRVPYPGSSCGPLTFHP the growth estimate was < -0.253.
For LNLSPLCRSYFSRT, the growth estimate was < -0.25.
For EHNVPFASTASGTISMFLSN, the growth estimate was < -0.25.
TVGNHAWFGRSR was tested, and the growth estimate was < -0.25.
For LTFYSSDCDSLVGKPECLSK, the growth estimate was < -0.25.
For GWVVSTG, the growth estimate was < -0.25.
For PIYKYGRQKFRIIISFSLKS, the growth estimate was < -0.25.
With TNQPIPKLIPWGMRRAGLAC the growth estimate was < -0.25.
AMLMVA was tested, and the growth estimate was -0.205.
For VDGAPEK, the growth estimate was < -0.25.
For SEMRSDRGILWLRCLHQRNG, the growth estimate was < -0.25.
SSVLG was tested, and the growth estimate was < -0.25.
With FYVELAGCGR the growth estimate was < -0.25.
GESPEMS was tested, and the growth estimate was < -0.25.
LVFGYECPWFAPGMMPRHLP was tested, and the growth estimate was < -0.25.
For VDYFVGPP, the growth estimate was < -0.25.
CGREIRDSAVSQRIHVLCEP gave a growth estimate of -0.245.
LDQ was tested, and the growth estimate was < -0.25.
RELSHYDAPALRSAG was tested, and the growth estimate was < -0.25.
With FHPQVTSLSLTLRSISIPLY the growth estimate was < -0.25.
In the case of LPVLCPWVQYRNCRRLLPLR, the growth estimate is reported as < -0.25.
KEWGGHGVSP was tested, and the growth estimate was < -0.25.
For EVLRVSAPQENPARQTGVGR, the growth estimate was < -0.25.
GPVGEARP was tested, and the growth estimate was < -0.25.
In the case of RPGKKLGNCAAGRGCHAAWM, the growth estimate is reported as < -0.25.
SGICTPDGWTYGT was tested, and the growth estimate was < -0.25.
Substance TSFAMLRGARSITSQSIF has a growth estimate of -0.0984.
With PYLTKTSVRKPRGRRLLTTV the growth estimate was < -0.25.
With CHN the growth estimate was < -0.25.
In the case of RNTSAPSYRVRGGLQYGTLT, the growth estimate is reported as < -0.25.
VHTTRSRDTWDETVKVDRVR was tested, and the growth estimate was < -0.25.
In the case of AEGGGIDATSESVATVHTIM, the growth estimate is reported as < -0.25.
In the case of FDLG, the growth estimate is reported as < -0.25.
WQFAVSSYSELAGPYRVISL was tested, and the growth estimate was < -0.25.
LTDITPFRAWPNSVEKAVLA was tested, and the growth estimate was < -0.25.
With WLSPRGPAPGE the growth estimate was < -0.25.
In the case of RGEH, the growth estimate is reported as < -0.25.
HSRKGRDLVGA was tested, and the growth estimate was < -0.25.
GHDNRRRRLP was tested, and the growth estimate was < -0.25.
In the case of TCIRQSDVISRRRWLPCFYT, the growth estimate is reported as < -0.25.
In the case of RGRSIEVR, the growth estimate is reported as < -0.25.
Work on ATEYGCWAVYMGRSQRREWD yielded a growth estimate of -0.112.
In the case of REVSNSLRNSKSRARASPLV, the growth estimate is reported as -0.133.
GPMNV was tested, and the growth estimate was < -0.25.
KMPSRVNPYHNTAPTLMYVV was tested, and the growth estimate was < -0.25.
For AIGIRPQRRLGYPVLRLHHC, the growth estimate was < -0.25.
With RTSAGPAPPALYP the growth estimate was < -0.25.
With TRVRGLRGLKGYLSRSYKTP the growth estimate was < -0.25.
For DGR, the growth estimate was < -0.25.
For TIGGSR, the growth estimate was < -0.25.
With TSVKSCLVLCKIAHKIYRFG the growth estimate was < -0.25.
With TGKSTLV the growth estimate was < -0.25.
TYETRGLETVSVGQDSTWTC was tested, and the growth estimate was < -0.25.
With MWQCLNNQG the growth estimate was < -0.25.
ISYNPCEGGTRSKKNGVVSN was tested, and the growth estimate was < -0.25.
In the case of DMA, the growth estimate is reported as < -0.25.
In the case of TSRNGWAGFRVRPYWAGHLG, the growth estimate is reported as < -0.25.
CVSLNDNASISHHNVYHCVE was tested, and the growth estimate was < -0.25.
HHRERSHVSVRTASDSDPAL was tested, and the growth estimate was < -0.25.
With NGRIDVSLVLGFVGHPC the growth estimate was < -0.25.
With CDH the growth estimate was < -0.25.
With IIKRRTRTG the growth estimate was < -0.25.
RSSPWPGIARSHGPIKRS was tested, and the growth estimate was < -0.25.
NAGNTPSGNGRIDWLRALRY was tested, and the growth estimate was < -0.25.
SRPTCLRDRFVIKQSHGLRN was tested, and the growth estimate was < -0.25.
With SSRQYRHRRLLEDGG the growth estimate was < -0.25.
VQRGIRAYLIYQNGERPGEW was tested, and the growth estimate was < -0.25.
In the case of WVFCSKPIRSLVVEAICHDG, the growth estimate is reported as < -0.25.
GILFAALDSPGAELRIVTSC was tested, and the growth estimate was < -0.25.
With PNCRKTGRGRGRVTWSFTSS the growth estimate was < -0.25.
With TSRVSDALLTSTEFGGLLGG the growth estimate was < -0.25.
QVTRTTQH was tested, and the growth estimate was -0.246.
GQTPFCSELVRRL was tested, and the growth estimate was < -0.25.
With NSVK the growth estimate was < -0.25.
With KRRAAPIISSWYGT the growth estimate was < -0.25.
With RTDILSVWLVGRETRRLHGS the growth estimate was < -0.25.
GRANCMTFAGWTSHA was tested, and the growth estimate was < -0.25.
With TPLIPQVDGRSSVCSGMCRD the growth estimate was < -0.25.
In the case of RLTNSSVSSESSCR, the growth estimate is reported as < -0.25.
With NQSKSPVEC the growth estimate was < -0.25.
For RGRRGCSGLDWV, the growth estimate was < -0.25.
With RGGLSIV the growth estimate was < -0.25.
For RVSVGRLV, the growth estimate was < -0.25.
With LGSCSNSAP the growth estimate was < -0.25.
KFLLSFAINNRES was tested, and the growth estimate was < -0.25.
Work on ICRAKYGVLTQDC yielded a growth estimate of -0.245.
For RVYMYVNIDRFAGIPHTEFM, the growth estimate was < -0.25.
For VSSP, the growth estimate was < -0.25.
GASDFVSISLGTVVGVTMEP was tested, and the growth estimate was < -0.25.
QNIYRHFQVTRRLQAA was tested, and the growth estimate was < -0.25.
In the case of RLYRTWRTAHVCLNTSWTSK, the growth estimate is reported as < -0.25.
For SVTGASS, the growth estimate was < -0.25.
For RSPIFAAVGQRGNTGTFALH, the growth estimate was < -0.25.
GTFIGTLAEFSR was tested, and the growth estimate was < -0.25.
For AHQPKQVEGKKADLG, the growth estimate was < -0.25.
With RATRGL the growth estimate was < -0.25.
For MVKFGRWQTATRQQHVYLCF, the growth estimate was < -0.25.
With DSG the growth estimate was < -0.25.
With LEARNSHACDGPSINYHQIH the growth estimate was < -0.253.
For STHYAEFCYGISHPNPGIGC, the growth estimate was < -0.25.
VAMTAS was tested, and the growth estimate was < -0.25.
With VPQPL the growth estimate was < -0.25.
DSEGGQGRCRITGSRLITPT was tested, and the growth estimate was < -0.25.
For SLKMSVHSLFCNNKHVGGAA, the growth estimate was < -0.25.
With RKQGGLTLCILEALASLTL the growth estimate was < -0.25.
For VSTGLQVNTERST, the growth estimate was < -0.25.
For TIKRGGSNN, the growth estimate was < -0.25.
In the case of IHMS, the growth estimate is reported as < -0.25.
For RRRSPIPFVFYQYGRLLQPQ, the growth estimate was < -0.25.
With LCPTQTFTRRIGRGSNLRLY the growth estimate was < -0.25.
In the case of RAVRVAT, the growth estimate is reported as < -0.25.
In the case of KKHRHLNALATTYNRCTYNS, the growth estimate is reported as < -0.25.
In the case of RHWLTCREINLPCYWYLSGS, the growth estimate is reported as < -0.25.
VTGNNVSFLLQSCASEAERM was tested, and the growth estimate was < -0.25.
With SRHGGITQH the growth estimate was < -0.25.
With VGAFAQRDGPKWCC the growth estimate was < -0.25.
In the case of GGSGINK, the growth estimate is reported as < -0.25.
RKLSRTSIWSPLGSGKQLWV was tested, and the growth estimate was < -0.25.
SASLNFYETRQRWRM was tested, and the growth estimate was < -0.25.
With WRDVCSFRNYSHGTLRLSSI the growth estimate was < -0.25.
For FATALYTAWSPGLGADLRSQ, the growth estimate was < -0.25.
In the case of RKDFRKMTLKRGRGYVNIWA, the growth estimate is reported as < -0.25.
With VLPSMQAPHPQATRNLPMKV the growth estimate was < -0.25.
In the case of DPPSSQRHPYPTAYH, the growth estimate is reported as < -0.25.
NTPSYSDGYCNRSLSRKRNP was tested, and the growth estimate was < -0.25.
SWVGRVGNVFYALWPWSRNR was tested, and the growth estimate was < -0.25.
